In publication PMC9409403:
Results are given in words; binding and its absence hold for the method and conditions named. For some assays here: Binding seen in cells or lysates may run through a third protein. Some entries that bind do so weakly or less than the wild type. Where a sequence is shown, tags or fusion partners need not be part of it. Blank lines part the entries; values can stand above or below the molecule they belong to.

Sequences of proteins named here, by UniProt entry; tags and fusion partners are left off. Residues count along the entry.
UniProt Q569L8: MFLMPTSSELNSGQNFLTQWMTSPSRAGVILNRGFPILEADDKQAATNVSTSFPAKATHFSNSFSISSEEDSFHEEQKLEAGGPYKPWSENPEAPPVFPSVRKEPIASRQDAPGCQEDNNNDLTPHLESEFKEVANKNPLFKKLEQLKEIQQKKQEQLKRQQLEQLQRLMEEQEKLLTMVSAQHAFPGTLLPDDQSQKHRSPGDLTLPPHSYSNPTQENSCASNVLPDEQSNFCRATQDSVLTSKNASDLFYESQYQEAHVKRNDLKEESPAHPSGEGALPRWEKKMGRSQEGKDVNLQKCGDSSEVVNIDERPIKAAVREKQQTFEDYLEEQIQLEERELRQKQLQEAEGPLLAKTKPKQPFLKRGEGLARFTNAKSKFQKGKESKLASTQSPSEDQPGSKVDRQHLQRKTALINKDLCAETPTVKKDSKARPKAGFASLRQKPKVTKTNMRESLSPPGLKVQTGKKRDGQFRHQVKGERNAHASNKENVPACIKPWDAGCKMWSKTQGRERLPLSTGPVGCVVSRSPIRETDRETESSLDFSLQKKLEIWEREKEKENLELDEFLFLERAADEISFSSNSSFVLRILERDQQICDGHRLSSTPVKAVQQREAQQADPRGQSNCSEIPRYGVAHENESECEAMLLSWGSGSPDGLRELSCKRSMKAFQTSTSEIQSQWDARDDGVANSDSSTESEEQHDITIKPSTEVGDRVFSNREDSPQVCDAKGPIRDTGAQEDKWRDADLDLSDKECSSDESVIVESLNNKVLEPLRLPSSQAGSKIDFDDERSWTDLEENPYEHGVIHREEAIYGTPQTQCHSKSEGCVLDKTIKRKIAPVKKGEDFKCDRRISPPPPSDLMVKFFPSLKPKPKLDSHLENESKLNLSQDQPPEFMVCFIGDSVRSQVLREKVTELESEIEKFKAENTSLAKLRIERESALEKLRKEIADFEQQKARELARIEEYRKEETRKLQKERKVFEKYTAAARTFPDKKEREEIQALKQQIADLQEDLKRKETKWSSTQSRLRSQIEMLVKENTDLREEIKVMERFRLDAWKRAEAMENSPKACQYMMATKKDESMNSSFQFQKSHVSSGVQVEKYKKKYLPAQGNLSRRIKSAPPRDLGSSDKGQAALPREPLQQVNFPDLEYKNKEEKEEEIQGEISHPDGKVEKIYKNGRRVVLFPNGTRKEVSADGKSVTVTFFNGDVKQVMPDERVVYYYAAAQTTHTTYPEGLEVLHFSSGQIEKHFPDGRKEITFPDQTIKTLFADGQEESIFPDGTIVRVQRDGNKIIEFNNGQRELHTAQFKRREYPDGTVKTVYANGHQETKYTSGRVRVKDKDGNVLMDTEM
UniProt Q9D752, residues 13-203: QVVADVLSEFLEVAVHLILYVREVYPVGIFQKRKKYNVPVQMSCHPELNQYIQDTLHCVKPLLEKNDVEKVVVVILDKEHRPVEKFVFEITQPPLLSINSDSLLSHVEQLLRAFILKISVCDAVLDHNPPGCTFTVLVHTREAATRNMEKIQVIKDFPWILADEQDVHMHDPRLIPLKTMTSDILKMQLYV

Key:
[1] = biological target: T1, HASPIN, full length, GAL4 DNA-binding domain fusion (two-hybrid bait) (mouse) (UniProt Q9Z0R0); assay: two-hybrid; Matchmaker two-hybrid system 2; GAL4 DNA-binding domain-HASPIN (pAS2-1) as bait in yeast Y190; mouse testis cDNA library in pACT2 as prey; 5 x 10^5 clones screened; positives Trp, Leu, His non-requiring and LacZ positive
T1 sequence: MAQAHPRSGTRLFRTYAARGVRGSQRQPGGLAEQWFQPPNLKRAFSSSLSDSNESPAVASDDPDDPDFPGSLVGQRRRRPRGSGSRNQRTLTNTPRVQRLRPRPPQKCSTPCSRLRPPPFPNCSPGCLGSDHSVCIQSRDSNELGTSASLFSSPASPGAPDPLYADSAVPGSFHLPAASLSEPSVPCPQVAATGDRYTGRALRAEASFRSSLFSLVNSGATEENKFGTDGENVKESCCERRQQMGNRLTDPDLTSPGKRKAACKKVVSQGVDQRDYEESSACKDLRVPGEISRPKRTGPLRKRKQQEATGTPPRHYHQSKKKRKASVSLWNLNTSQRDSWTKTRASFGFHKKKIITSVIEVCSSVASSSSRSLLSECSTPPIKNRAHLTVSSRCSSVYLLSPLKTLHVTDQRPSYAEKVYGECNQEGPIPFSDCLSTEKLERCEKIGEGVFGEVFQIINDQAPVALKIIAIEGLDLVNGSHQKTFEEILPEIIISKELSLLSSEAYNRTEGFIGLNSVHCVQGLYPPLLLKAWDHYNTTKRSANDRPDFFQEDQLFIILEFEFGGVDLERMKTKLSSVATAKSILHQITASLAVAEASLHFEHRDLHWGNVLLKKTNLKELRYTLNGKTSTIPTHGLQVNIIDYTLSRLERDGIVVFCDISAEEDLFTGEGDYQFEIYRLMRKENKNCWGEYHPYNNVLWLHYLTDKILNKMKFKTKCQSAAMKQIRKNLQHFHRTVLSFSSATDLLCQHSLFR

C1QBP-FLAG (mouse) = biological target: T2, C1QBP-FLAG (mouse) (UniProt O35658); assay: co-IP; HEK 293 co-transfected with Egfp-Haspin and a FLAG-tagged partner, 48 h; RIPA lysate; immunoprecipitation with anti-HASPIN serum, anti-FLAG antibody or rabbit serum on Protein A Sepharose; western blot
T2 sequence: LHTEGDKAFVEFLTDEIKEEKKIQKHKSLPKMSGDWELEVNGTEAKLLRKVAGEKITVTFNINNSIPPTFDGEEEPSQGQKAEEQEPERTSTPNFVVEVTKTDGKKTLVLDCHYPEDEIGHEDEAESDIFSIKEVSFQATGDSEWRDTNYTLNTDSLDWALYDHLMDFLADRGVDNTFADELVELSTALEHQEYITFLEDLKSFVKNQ

RFP-CENPJ-FLAG (mouse) = RFP-CENPJ-FLAG (mouse) (UniProt Q569L8); assay: as above

binding [1]: binds
Molecule: Mad2l2/MAD2 mitotic arrest deficient-like 2, two-hybrid clone with the HORMA domain (from UniProt Q9D752 13-203) (domain or fragment)

binding [1]: binds
Molecule: Kpna6/importin alpha 6, two-hybrid clone (whole) (from UniProt O35345 1-536)

binding (C1QBP-FLAG (mouse)): binds
binding (RFP-CENPJ-FLAG (mouse)): binds
B1: EGFP-HASPIN (protein, UniProt Q9Z0R0 1-754)
chain: T1 sequence

binding [1]: binds
B2: C1qbp/HABP1, two-hybrid clone (whole) (protein, UniProt O35658 1-278)
chain: MLPLLRCVPRSLGAASGLRTAIPAQPLRHLLQPAPRPCLRPFGLLSVRAGSARRSGLLQPPVPCACGCGALHTEGDKAFVEFLTDEIKEEKKIQKHKSLPKMSGDWELEVNGTEAKLLRKVAGEKITVTFNINNSIPPTFDGEEEPSQGQKAEEQEPERTSTPNFVVEVTKTDGKKTLVLDCHYPEDEIGHEDEAESDIFSIKEVSFQATGDSEWRDTNYTLNTDSLDWALYDHLMDFLADRGVDNTFADELVELSTALEHQEYITFLEDLKSFVKNQ
